Assay results taken from paper PMC7948961, “Proteomic identification and validation of novel interactions of the putative tumor suppressor PRELP with membrane proteins including IGFI-R and p75NTR” (The Journal of Biological Chemistry, 2021).
Results are given in words; binding and its absence hold for the method and conditions named. Binding seen in cells or lysates may run through a third protein. A yes stands for co-enrichment or nearness to the bait. Other partners may have been found. Tags and fused reporters may be left off the sequences shown.

T1: Human PRELP (proline and arginine-rich end leucine-rich repeat protein) with a C-terminal FLAG tag, overexpressed in Expi293 cells (human) (UniProt P51888)
T1 sequence: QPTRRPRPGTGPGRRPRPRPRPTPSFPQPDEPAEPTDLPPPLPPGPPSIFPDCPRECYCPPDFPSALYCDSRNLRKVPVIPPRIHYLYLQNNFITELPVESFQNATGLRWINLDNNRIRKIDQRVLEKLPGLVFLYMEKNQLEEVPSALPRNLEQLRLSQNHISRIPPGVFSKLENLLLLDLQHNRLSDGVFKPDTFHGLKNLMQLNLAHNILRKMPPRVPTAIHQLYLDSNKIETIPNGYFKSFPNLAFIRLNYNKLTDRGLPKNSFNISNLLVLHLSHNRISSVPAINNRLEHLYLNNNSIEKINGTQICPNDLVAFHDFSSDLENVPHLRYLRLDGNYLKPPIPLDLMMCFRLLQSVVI

B1: Protocadherin-7 (protein, UniProt O60245 29-1069)
chain: AAKQLLRYRLAEEGPADVRIGNVASDLGIVTGSGEVTFSLESGSEYLKIDNLTGELSTSERRIDREKLPQCQMIFDENECFLDFEVSVIGPSQSWVDLFEGQVIVLDINDNTPTFPSPVLTLTVEENRPVGTLYLLPTATDRDFGRNGIERYELLQEPGGGGSGGESRRAGAADSAPYPGGGGNGASGGGSGGSKRRLDASEGGGGTNPGGRSSVFELQVADTPDGEKQPQLIVKGALDREQRDSYELTLRVRDGGDPPRSSQAILRVLITDVNDNSPRFEKSVYEADLAENSAPGTPILQLRAADLDVGVNGQIEYVFGAATESVRRLLRLDETSGWLSVLHRIDREEVNQLRFTVMARDRGQPPKTDKATVVLNIKDENDNVPSIEIRKIGRIPLKDGVANVAEDVLVDTPIALVQVSDRDQGENGVVTCTVVGDVPFQLKPASDTEGDQNKKKYFLHTSTPLDYEATREFNVVIVAVDSGSPSLSSNNSLIVKVGDTNDNPPMFGQSVVEVYFPENNIPGERVATVLATDADSGKNAEIAYSLDSSVMGIFAIDPDSGDILVNTVLDREQTDRYEFKVNAKDKGIPVLQGSTTVIVQVADKNDNDPKFMQDVFTFYVKENLQPNSPVGMVTVMDADKGRNAEMSLYIEENNNIFSIENDTGTIYSTMSFDREHQTTYTFRVKAVDGGDPPRSATATVSLFVMDENDNAPTVTLPKNISYTLLPPSSNVRTVVATVLATDSDDGINADLNYSIVGGNPFKLFEIDPTSGVVSLVGKLTQKHYGLHRLVVQVNDSGQPSQSTTTLVHVFVNESVSNATAIDSQIARSLHIPLTQDIAGDPSYEISKQRLSIVIGVVAGIMTVILIILIVVMARYCRSKNKNGYEAGKKDHEDFFTPQQHDKSKKPKKDKKNKKSKQPLYSSIVTVEASKPNGQRYDSVNEKLSDSPSMGRYRSVNGGPGSPDLARHYKSSSPLPTVQLHPQSPTAGKKHQAVQDLPPANTFVGAGDNISIGSDHCSEYSCQTNNKYSKQMRLHPYITVFG
B2: Transmembrane emp24 domain-containing protein 1 (protein, UniProt Q13445 24-227)
chain: AGPPPIQDGEFTFLLPAGRKQCFYQSAPANASLETEYQVIGGAGLDVDFTLESPQGVLLVSESRKADGVHTVEPTEAGDYKLCFDNSFSTISEKLVFFELIFDSLQDDEEVEGWAEAVEPEEMLDVKMEDIKESIETMRTRLERSIQMLTLLRAFEARDRNLQEGNLERVNFWSAVNVAVLLLVAVLQVCTLKRFFQDKRPVPT
B3: Thioredoxin-related transmembrane protein 1 (protein, UniProt Q9H3N1 27-280)
chain: RRSNVRVITDENWRELLEGDWMIEFYAPWCPACQNLQPEWESFAEWGEDLEVNIAKVDVTEQPGLSGRFIITALPTIYHCKDGEFRRYQGPRTKKDFINFISDKEWKSIEPVSSWFGPGSVLMSSMSALFQLSMWIRTCHNYFIEDLGLPVWGSYTVFALATLFSGLLLGLCMIFVADCLCPSKRRRPQPYPYPSKKLLSESAQPLKKVEEEQEADEEDVSEEEAESKEGTNKDFPQNAIRQRSLGPSLATDKS
B4: Thioredoxin-related transmembrane protein 4 (protein, UniProt Q9H1E5 24-349)
chain: TAGPEEAALPPEQSRVQPMTASNWTLVMEGEWMLKFYAPWCPSCQQTDSEWEAFAKNGEILQISVGKVDVIQEPGLSGRFFVTTLPAFFHAKDGIFRRYRGPGIFEDLQNYILEKKWQSVEPLTGWKSPASLTMSGMAGLFSISGKIWHLHNYFTVTLGIPAWCSYVFFVIATLVFGLFMGLVLVVISECFYVPLPRHLSERSEQNRRSEEAHRAEQLQDAEEEKDDSNEEENKDSLVDDEEEKEDLGDEDEAEEEEEEDNLAAGVDEERSEANDQGPPGEDGVTREEVEPEEAEEGISEQPCPADTEVVEDSLRQRKSQHADKGL
B5: CDK5 regulatory subunit-associated protein 3 (protein, UniProt Q96JB5 1-506)
chain: MEDHQHVPIDIQTSKLLDWLVDRRHCSLKWQSLVLTIREKINAAIQDMPESEEIAQLLSGSYIHYFHCLRILDLLKGTEASTKNIFGRYSSQRMKDWQEIIALYEKDNTYLVELSSLLVRNVNYEIPSLKKQIAKCQQLQQEYSRKEEECQAGAAEMREQFYHSCKQYGITGENVRGELLALVKDLPSQLAEIGAAAQQSLGEAIDVYQASVGFVCESPTEQVLPMLRFVQKRGNSTVYEWRTGTEPSVVERPHLEELPEQVAEDAIDWGDFGVEAVSEGTDSGISAEAAGIDWGIFPESDSKDPGGDGIDWGDDAVALQITVLEAGTQAPEGVARGPDALTLLEYTETRNQFLDELMELEIFLAQRAVELSEEADVLSVSQFQLAPAILQGQTKEKMVTMVSVLEDLIGKLTSLQLQHLFMILASPRYVDRVTEFLQQKLKQSQLLALKKELMVQKQQEALEEQAALEPKLDLLLEKTKELQKLIEADISKRYSGRPVNLMGTSL
B6: Copine-1 (protein, UniProt Q99829 1-537)
chain: MAHCVTLVQLSISCDHLIDKDIGSKSDPLCVLLQDVGGGSWAELGRTERVRNCSSPEFSKTLQLEYRFETVQKLRFGIYDIDNKTPELRDDDFLGGAECSLGQIVSSQVLTLPLMLKPGKPAGRGTITVSAQELKDNRVVTMEVEARNLDKKDFLGKSDPFLEFFRQGDGKWHLVYRSEVIKNNLNPTWKRFSVPVQHFCGGNPSTPIQVQCSDYDSDGSHDLIGTFHTSLAQLQAVPAEFECIHPEKQQKKKSYKNSGTIRVKICRVETEYSFLDYVMGGCQINFTVGVDFTGSNGDPSSPDSLHYLSPTGVNEYLMALWSVGSVVQDYDSDKLFPAFGFGAQVPPDWQVSHEFALNFNPSNPYCAGIQGIVDAYRQALPQVRLYGPTNFAPIINHVARFAAQAAHQGTASQYFMLLLLTDGAVTDVEATREAVVRASNLPMSVIIVGVGGADFEAMEQLDADGGPLHTRSGQAAARDIVQFVPYRRFQNAPREALAQTVLAEVPTQLVSYFRAQGWAPLKPLPPSAKDPAQAPQA
B7: Adhesion G-protein-coupled receptor L2 (receptor, UniProt O95490 26-1459)
chain: FSRAALPFGLVRRELSCEGYSIDLRCPGSDVIMIESANYGRTDDKICDADPFQMENTDCYLPDAFKIMTQRCNNRTQCIVVTGSDVFPDPCPGTYKYLEVQYECVPYIFVCPGTLKAIVDSPCIYEAEQKAGAWCKDPLQAADKIYFMPWTPYRTDTLIEYASLEDFQNSRQTTTYKLPNRVDGTGFVVYDGAVFFNKERTRNIVKFDLRTRIKSGEAIINYANYHDTSPYRWGGKTDIDLAVDENGLWVIYATEQNNGMIVISQLNPYTLRFEATWETVYDKRAASNAFMICGVLYVVRSVYQDNESETGKNSIDYIYNTRLNRGEYVDVPFPNQYQYIAAVDYNPRDNQLYVWNNNFILRYSLEFGPPDPAQVPTTAVTITSSAELFKTIISTTSTTSQKGPMSTTVAGSQEGSKGTKPPPAVSTTKIPPITNIFPLPERFCEALDSKGIKWPQTQRGMMVERPCPKGTRGTASYLCMISTGTWNPKGPDLSNCTSHWVNQLAQKIRSGENAASLANELAKHTKGPVFAGDVSSSVRLMEQLVDILDAQLQELKPSEKDSAGRSYNKLQKREKTCRAYLKAIVDTVDNLLRPEALESWKHMNSSEQAHTATMLLDTLEEGAFVLADNLLEPTRVSMPTENIVLEVAVLSTEGQIQDFKFPLGIKGAGSSIQLSANTVKQNSRNGLAKLVFIIYRSLGQFLSTENATIKLGADFIGRNSTIAVNSHVISVSINKESSRVYLTDPVLFTLPHIDPDNYFNANCSFWNYSERTMMGYWSTQGCKLVDTNKTRTTCACSHLTNFAILMAHREIAYKDGVHELLLTVITWVGIVISLVCLAICIFTFCFFRGLQSDRNTIHKNLCINLFIAEFIFLIGIDKTKYAIACPIFAGLLHFFFLAAFAWMCLEGVQLYLMLVEVFESEYSRKKYYYVAGYLFPATVVGVSAAIDYKSYGTEKACWLHVDNYFIWSFIGPVTFIILLNIIFLVITLCKMVKHSNTLKPDSSRLENIKSWVLGAFALLCLLGLTWSFGLLFINEETIVMAYLFTIFNAFQGVFIFIFHCALQKKVRKEYGKCFRHSYCCGGLPTESPHSSVKASTTRTSARYSSGTQSRIRRMWNDTVRKQSESSFISGDINSTSTLNQGMTGNYLLTNPLLRPHGTNNPYNTLLAETVVCNAPSAPVFNSPGHSLNNARDTSAMDTLPLNGNFNNSYSLHKGDYNDSVQVVDCGLSLNDTAFEKMIISELVHNNLRGSSKTHNLELTLPVKPVIGGSSSEDDAIVADASSLMHSDNPGLELHHKELEAPLIPQRTHSLLYQPQKKVKSEGTDSYVSQLTAEAEDHLQSPNRDSLYTSMPNLRDSPYPESSPDMEEDLSPSRRSENEDIYYKSMPNLGAGHQLQMCYQISRGNSDGYIIPINKEGCIPEGDVREGQMQLVTSL
B8: Carboxypeptidase D (protein, UniProt O75976 32-1380)
chain: AHIKKAEATTTTTSAGAEAAEGQFDRYYHEEELESALREAAAAGLPGLARLFSIGRSVEGRPLWVLRLTAGLGSLIPEGDAGPDAAGPDAAGPLLPGRPQVKLVGNMHGDETVSRQVLIYLARELAAGYRRGDPRLVRLLNTTDVYLLPSLNPDGFERAREGDCGFGDGGPSGASGRDNSRGRDLNRSFPDQFSTGEPPALDEVPEVRALIEWIRRNKFVLSGNLHGGSVVASYPFDDSPEHKATGIYSKTSDDEVFKYLAKAYASNHPIMKTGEPHCPGDEDETFKDGITNGAHWYDVEGGMQDYNYVWANCFEITLELSCCKYPPASQLRQEWENNRESLITLIEKVHIGVKGFVKDSITGSGLENATISVAGINHNITTGRFGDFYRLLVPGTYNLTVVLTGYMPLTVTNVVVKEGPATEVDFSLRPTVTSVIPDTTEAVSTASTVAIPNILSGTSSSYQPIQPKDFHHHHFPDMEIFLRRFANEYPNITRLYSLGKSVESRELYVMEISDNPGVHEPGEPEFKYIGNMHGNEVVGRELLLNLIEYLCKNFGTDPEVTDLVHNTRIHLMPSMNPDGYEKSQEGDSISVIGRNNSNNFDLNRNFPDQFVQITDPTQPETIAVMSWMKSYPFVLSANLHGGSLVVNYPFDDDEQGLATYSKSPDDAVFQQIALSYSKENSQMFQGRPCKNMYPNEYFPHGITNGASWYNVPGGMQDWNYLQTNCFEVTIELGCVKYPLEKELPNFWEQNRRSLIQFMKQVHQGVRGFVLDATDGRGILNATISVAEINHPVTTYKTGDYWRLLVPGTYKITASARGYNPVTKNVTVKSEGAIQVNFTLVRSSTDSNNESKKGKGASSSTNDASDPTTKEFETLIKDLSAENGLESLMLRSSSNLALALYRYHSYKDLSEFLRGLVMNYPHITNLTNLGQSTEYRHIWSLEISNKPNVSEPEEPKIRFVAGIHGNAPVGTELLLALAEFLCLNYKKNPAVTQLVDRTRIVIVPSLNPDGRERAQEKDCTSKIGQTNARGKDLDTDFTNNASQPETKAIIENLIQKQDFSLSVALDGGSMLVTYPYDKPVQTVENKETLKHLASLYANNHPSMHMGQPSCPNKSDENIPGGVMRGAEWHSHLGSMKDYSVTYGHCPEITVYTSCCYFPSAARLPSLWADNKRSLLSMLVEVHKGVHGFVKDKTGKPISKAVIVLNEGIKVQTKEGGYFHVLLAPGVHNIIAIADGYQQQHSQVFVHHDAASSVVIVFDTDNRIFGLPRELVVTVSGATMSALILTACIIWCICSIKSNRHKDGFHRLRQHHDEYEDEIRMMSTGSKKSLLSHEFQDETDTEEETLYSSKH

The binders below were run against T1, Human PRELP (proline and arginine-rich end leucine-rich repeat protein) with a C-terminal FLAG tag, overexpressed in Expi293 cells (human) (assay: affinity purification with mass spectrometry; CoIP-MS: DDM extract (0.1% DDM, PBS pH 7.4) of the membrane fraction of Expi293 cells expressing PRELP-FLAG, captured on DDDDK-tagged Protein Purification Gel overnight at 4 °C, eluted with FLAG peptide; S-Trap digestion, LC-MS/MS; compared with control-transfected cells).

binding, binds:
B1
B2
B3
B4
B5
B6
B7
B8
